Results are given in words; binding and its absence hold for the method and conditions named. Binding seen in cells or lysates may run through a third protein. Binding calls can cover weak binding; strength is not graded here.

Amino acid sequences for entries named in this document (tags omitted). A change or cut given only in a name is not applied to a line headed by its entry.
UniProt P56959: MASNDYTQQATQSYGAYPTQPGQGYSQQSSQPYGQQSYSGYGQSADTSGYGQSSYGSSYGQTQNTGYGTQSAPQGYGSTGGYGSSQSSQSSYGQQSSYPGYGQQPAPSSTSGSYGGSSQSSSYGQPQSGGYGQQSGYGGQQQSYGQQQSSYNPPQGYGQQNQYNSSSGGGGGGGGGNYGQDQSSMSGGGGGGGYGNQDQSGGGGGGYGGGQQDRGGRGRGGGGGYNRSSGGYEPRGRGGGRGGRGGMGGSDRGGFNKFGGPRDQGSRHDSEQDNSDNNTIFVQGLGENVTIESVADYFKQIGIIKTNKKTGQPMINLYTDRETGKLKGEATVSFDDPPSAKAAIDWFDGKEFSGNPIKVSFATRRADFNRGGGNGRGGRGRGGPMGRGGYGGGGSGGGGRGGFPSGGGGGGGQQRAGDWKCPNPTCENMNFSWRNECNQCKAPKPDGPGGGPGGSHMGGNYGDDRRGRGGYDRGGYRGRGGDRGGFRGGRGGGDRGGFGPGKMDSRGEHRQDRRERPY
UniProt P97801: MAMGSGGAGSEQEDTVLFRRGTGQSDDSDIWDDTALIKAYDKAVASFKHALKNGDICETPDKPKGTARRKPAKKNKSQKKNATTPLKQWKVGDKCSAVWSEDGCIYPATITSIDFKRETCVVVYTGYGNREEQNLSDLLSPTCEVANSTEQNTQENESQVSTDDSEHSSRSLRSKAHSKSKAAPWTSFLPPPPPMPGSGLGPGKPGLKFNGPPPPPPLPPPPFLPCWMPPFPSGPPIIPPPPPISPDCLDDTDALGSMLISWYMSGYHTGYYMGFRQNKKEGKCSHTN

This assay has as its target ∆14 FUS, endogenous protein of the ∆14 Fus knockin mouse (mouse (endogenous in knockin embryonic brain)) (UniProt P56959). As to the kind of experiment: co-IP; E12.5-14.5 mouse brains homogenised in 20 mM HEPES pH 7.4, 150 mM NaCl, 10% glycerol; 1 mg lysate, 2 μg antibody or IgG control overnight, Protein A Sepharose; which protein was precipitated is not told.

With “Survival Motor Neuron (SMN), mouse, endogenous (from UniProt P97801 1-288)”, the binding result was “binds”.

These data come from PMC8294762.
